The target of this assay is Syt7-mCherry (UniProt O43581). Briefly: co-IP; 293 T cells transfected with HA-Esyt1 and Syt7 plasmids; immunoprecipitation with anti-mCherry antibody, precipitates analysed with anti-HA antibody.

The chains behind the UniProt entries cited, without tags or fusion partners.
UniProt O43581: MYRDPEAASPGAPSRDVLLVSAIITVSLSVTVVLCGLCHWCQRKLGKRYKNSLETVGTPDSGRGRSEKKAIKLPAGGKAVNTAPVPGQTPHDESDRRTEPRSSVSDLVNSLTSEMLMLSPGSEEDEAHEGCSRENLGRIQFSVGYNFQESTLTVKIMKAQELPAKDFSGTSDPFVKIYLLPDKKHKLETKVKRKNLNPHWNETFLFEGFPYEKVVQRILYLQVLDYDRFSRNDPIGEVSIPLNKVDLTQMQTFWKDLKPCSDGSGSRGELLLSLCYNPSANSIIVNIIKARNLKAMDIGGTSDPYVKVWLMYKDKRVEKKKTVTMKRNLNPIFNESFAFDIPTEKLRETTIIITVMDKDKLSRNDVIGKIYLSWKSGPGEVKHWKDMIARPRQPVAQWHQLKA

These are yes or no findings as the source states them, for the method shown. In cells and extracts the contact can be indirect. Some results given as binding are weak or reduced against the parent protein; the word gives no strength. Sequences can lack the tags named with a protein.

B1: HA-Esyt1 (protein, UniProt Q9BSJ8 1-1104)
chain: MERSPGEGPSPSPMDQPSAPSDPTDQPPAAHAKPDPGSGGQPAGPGAAGEALAVLTSFGRRLLVLIPVYLAGAVGLSVGFVLFGLALYLGWRRVRDEKERSLRAARQLLDDEEQLTAKTLYMSHRELPAWVSFPDVEKAEWLNKIVAQVWPFLGQYMEKLLAETVAPAVRGSNPHLQTFTFTRVELGEKPLRIIGVKVHPGQRKEQILLDLNISYVGDVQIDVEVKKYFCKAGVKGMQLHGVLRVILEPLIGDLPFVGAVSMFFIRRPTLDINWTGMTNLLDIPGLSSLSDTMIMDSIAAFLVLPNRLLVPLVPDLQDVAQLRSPLPRGIIRIHLLAARGLSSKDKYVKGLIEGKSDPYALVRLGTQTFCSRVIDEELNPQWGETYEVMVHEVPGQEIEVEVFDKDPDKDDFLGRMKLDVGKVLQASVLDDWFPLQGGQGQVHLRLEWLSLLSDAEKLEQVLQWNWGVSSRPDPPSAAILVVYLDRAQDLPLKKGNKEPNPMVQLSIQDVTQESKAVYSTNCPVWEEAFRFFLQDPQSQELDVQVKDDSRALTLGALTLPLARLLTAPELILDQWFQLSSSGPNSRLYMKLVMRILYLDSSEICFPTVPGCPGAWDVDSENPQRGSSVDAPPRPCHTTPDSQFGTEHVLRIHVLEAQDLIAKDRFLGGLVKGKSDPYVKLKLAGRSFRSHVVREDLNPRWNEVFEVIVTSVPGQELEVEVFDKDLDKDDFLGRCKVRLTTVLNSGFLDEWLTLEDVPSGRLHLRLERLTPRPTAAELEEVLQVNSLIQTQKSAELAAALLSIYMERAEDLPLRKGTKHLSPYATLTVGDSSHKTKTISQTSAPVWDESASFLIRKPHTESLELQVRGEGTGVLGSLSLPLSELLVADQLCLDRWFTLSSGQGQVLLRAQLGILVSQHSGVEAHSHSYSHSSSSLSEEPELSGGPPHITSSAPELRQRLTHVDSPLEAPAGPLGQVKLTLWYYSEERKLVSIVHGCRSLRQNGRDPPDPYVSLLLLPDKNRGTKRRTSQKKRTLSPEFNERFEWELPLDEAQRRKLDVSVKSNSSFMSRERELLGKVQLDLAETDLSQGVARWYDLMDNKDKGSS
Turning to B1, the binding result is reported as “binds”.
